From the supplement of paper PMC6411743
± gives the standard deviation of the averaged measurements. This is a selection; strong and weak results do not stand in their true shares.

By UniProt entry, the sequences of proteins in these tests, tags left out. Where a name states a change or a piece, a line headed by the entry shows the natural chain unless it says otherwise.
UniProt Q92820: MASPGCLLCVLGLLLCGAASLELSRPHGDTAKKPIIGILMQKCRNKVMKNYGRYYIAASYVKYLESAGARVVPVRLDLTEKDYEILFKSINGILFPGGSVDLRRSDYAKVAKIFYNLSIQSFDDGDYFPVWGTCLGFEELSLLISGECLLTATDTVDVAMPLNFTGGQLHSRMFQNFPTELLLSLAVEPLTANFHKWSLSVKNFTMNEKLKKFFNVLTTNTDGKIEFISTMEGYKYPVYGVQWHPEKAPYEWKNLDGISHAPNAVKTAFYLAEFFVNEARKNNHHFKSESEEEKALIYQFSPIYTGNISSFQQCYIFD
UniProt Q8WVZ9: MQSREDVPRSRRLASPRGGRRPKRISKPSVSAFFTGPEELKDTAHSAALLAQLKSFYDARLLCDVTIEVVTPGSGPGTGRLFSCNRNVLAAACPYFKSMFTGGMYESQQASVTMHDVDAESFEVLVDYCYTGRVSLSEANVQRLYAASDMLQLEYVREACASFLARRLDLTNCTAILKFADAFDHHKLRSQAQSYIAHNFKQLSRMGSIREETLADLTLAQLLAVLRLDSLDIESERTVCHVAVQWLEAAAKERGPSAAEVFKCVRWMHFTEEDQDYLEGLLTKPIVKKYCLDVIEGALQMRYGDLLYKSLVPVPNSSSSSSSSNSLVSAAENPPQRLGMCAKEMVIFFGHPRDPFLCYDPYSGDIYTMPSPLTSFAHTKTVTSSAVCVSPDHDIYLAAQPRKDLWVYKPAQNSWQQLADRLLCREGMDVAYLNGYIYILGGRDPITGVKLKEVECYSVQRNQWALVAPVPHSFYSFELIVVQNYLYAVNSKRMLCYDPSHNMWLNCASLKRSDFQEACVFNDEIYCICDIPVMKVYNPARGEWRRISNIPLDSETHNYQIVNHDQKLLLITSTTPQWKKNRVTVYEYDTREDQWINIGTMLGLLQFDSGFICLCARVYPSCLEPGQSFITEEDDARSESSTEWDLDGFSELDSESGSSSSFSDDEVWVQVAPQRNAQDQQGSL
UniProt Q8TCA0: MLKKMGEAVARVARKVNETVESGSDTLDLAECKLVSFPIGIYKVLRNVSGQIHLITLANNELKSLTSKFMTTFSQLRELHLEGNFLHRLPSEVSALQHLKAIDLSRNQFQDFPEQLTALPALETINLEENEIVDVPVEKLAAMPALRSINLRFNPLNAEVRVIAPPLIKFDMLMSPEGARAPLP
UniProt Q8TDQ7: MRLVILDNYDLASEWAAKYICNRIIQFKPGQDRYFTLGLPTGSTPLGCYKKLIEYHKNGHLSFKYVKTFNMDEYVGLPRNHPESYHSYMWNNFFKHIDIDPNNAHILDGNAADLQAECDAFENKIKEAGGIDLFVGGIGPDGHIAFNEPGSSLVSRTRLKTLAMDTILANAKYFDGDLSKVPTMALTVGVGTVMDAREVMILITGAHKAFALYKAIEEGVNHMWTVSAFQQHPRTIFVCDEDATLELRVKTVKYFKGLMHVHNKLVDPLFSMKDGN
UniProt Q8WU90: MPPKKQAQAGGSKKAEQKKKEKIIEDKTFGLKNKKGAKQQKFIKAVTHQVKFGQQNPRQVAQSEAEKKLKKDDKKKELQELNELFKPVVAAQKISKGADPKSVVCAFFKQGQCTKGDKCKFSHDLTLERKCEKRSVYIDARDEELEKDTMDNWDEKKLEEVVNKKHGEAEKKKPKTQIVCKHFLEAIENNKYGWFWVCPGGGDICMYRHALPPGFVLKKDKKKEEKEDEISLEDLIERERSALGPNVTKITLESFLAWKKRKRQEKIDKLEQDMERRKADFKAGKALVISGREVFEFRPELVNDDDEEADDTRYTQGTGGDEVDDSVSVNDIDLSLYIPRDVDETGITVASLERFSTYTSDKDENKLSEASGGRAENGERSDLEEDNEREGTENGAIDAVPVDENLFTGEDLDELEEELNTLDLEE
UniProt Q8WVQ1: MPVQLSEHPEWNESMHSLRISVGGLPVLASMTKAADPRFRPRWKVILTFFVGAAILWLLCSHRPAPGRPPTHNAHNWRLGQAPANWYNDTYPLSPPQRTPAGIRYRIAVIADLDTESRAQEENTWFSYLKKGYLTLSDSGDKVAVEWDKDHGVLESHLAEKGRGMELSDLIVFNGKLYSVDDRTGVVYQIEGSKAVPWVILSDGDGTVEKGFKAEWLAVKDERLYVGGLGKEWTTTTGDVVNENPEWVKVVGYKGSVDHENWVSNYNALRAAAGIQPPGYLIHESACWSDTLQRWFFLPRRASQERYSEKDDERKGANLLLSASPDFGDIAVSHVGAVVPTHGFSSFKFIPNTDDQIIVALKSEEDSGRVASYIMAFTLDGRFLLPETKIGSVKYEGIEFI
UniProt Q8WVT3: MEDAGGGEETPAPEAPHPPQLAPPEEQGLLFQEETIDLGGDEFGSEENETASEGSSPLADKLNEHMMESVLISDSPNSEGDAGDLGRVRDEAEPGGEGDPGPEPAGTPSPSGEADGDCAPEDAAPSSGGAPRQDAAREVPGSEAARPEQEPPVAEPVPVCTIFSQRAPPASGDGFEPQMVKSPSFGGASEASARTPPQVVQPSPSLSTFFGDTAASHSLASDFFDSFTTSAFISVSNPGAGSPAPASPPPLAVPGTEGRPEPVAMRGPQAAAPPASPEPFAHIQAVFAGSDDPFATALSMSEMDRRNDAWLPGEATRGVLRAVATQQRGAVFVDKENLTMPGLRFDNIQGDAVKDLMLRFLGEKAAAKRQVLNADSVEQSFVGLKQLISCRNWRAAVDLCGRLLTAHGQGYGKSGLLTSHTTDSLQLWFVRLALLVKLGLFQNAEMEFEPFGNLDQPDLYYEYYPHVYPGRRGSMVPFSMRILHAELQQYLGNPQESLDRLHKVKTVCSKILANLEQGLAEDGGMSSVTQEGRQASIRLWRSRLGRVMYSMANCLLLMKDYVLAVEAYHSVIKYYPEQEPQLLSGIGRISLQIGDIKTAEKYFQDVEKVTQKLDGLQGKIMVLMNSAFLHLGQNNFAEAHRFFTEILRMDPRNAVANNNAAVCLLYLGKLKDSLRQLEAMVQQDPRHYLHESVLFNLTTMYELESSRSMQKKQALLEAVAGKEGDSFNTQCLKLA
UniProt Q8WXG6, whole entry, looked up: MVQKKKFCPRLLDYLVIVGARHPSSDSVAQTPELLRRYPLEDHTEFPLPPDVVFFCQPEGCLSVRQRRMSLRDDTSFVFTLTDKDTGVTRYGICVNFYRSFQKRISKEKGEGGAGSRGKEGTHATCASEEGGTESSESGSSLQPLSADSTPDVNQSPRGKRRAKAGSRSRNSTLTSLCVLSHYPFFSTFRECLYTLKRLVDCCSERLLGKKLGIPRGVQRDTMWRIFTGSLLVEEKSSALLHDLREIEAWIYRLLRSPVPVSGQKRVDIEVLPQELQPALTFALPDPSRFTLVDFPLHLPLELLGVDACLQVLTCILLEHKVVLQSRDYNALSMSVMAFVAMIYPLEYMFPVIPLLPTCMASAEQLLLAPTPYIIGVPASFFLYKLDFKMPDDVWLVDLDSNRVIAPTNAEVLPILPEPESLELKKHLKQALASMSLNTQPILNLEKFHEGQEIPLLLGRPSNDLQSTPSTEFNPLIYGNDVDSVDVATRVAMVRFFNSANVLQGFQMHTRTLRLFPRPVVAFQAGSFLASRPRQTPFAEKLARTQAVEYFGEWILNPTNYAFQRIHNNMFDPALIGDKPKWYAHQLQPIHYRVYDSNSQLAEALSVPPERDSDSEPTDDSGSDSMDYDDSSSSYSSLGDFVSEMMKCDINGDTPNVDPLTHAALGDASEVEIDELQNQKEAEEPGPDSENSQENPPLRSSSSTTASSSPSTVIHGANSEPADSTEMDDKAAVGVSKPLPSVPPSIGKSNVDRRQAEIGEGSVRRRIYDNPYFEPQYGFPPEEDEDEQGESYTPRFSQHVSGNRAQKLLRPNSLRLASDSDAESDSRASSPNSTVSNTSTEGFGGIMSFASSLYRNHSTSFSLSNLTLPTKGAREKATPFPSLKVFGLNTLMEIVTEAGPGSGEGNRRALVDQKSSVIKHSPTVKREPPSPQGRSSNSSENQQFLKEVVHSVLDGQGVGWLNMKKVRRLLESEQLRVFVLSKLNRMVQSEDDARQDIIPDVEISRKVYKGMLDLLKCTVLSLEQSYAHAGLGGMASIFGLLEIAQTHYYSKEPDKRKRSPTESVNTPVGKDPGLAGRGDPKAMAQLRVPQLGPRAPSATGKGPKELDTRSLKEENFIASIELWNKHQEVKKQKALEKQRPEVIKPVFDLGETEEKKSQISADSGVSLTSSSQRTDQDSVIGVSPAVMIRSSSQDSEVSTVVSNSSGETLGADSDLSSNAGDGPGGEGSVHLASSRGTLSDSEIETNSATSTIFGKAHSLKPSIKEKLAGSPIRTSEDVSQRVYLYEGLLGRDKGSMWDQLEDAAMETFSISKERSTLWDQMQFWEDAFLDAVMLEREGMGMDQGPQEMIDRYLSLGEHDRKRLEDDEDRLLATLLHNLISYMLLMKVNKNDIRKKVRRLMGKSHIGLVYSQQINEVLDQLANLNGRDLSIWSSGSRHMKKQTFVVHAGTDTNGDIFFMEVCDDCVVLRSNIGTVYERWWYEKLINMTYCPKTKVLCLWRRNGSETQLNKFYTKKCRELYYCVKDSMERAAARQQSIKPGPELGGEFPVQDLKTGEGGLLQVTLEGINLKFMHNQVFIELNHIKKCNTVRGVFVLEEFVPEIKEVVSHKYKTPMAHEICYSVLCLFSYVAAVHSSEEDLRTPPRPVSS
UniProt Q8TCG2: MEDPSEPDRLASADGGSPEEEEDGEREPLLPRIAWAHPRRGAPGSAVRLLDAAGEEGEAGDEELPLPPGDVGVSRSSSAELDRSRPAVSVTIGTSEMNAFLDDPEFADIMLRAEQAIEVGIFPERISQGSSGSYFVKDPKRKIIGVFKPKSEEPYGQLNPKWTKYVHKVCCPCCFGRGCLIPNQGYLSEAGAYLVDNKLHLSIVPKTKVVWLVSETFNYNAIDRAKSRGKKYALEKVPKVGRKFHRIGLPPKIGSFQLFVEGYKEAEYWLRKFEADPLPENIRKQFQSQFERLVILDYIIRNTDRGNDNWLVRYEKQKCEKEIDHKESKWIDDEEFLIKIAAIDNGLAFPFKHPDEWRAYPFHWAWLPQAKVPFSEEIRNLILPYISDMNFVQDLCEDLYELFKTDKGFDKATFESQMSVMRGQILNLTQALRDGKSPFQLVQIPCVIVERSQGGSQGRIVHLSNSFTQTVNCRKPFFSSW
UniProt Q8TCT9: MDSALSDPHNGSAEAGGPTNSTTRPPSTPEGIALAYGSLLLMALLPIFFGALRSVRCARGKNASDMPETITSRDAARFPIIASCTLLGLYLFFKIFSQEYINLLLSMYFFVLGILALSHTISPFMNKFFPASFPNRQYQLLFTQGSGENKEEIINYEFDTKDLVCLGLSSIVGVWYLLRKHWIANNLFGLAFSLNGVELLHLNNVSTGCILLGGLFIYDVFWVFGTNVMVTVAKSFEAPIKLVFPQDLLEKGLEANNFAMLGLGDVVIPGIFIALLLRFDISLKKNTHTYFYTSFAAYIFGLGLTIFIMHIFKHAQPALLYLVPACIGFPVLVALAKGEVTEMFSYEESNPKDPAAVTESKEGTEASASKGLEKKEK
UniProt Q8TAF3: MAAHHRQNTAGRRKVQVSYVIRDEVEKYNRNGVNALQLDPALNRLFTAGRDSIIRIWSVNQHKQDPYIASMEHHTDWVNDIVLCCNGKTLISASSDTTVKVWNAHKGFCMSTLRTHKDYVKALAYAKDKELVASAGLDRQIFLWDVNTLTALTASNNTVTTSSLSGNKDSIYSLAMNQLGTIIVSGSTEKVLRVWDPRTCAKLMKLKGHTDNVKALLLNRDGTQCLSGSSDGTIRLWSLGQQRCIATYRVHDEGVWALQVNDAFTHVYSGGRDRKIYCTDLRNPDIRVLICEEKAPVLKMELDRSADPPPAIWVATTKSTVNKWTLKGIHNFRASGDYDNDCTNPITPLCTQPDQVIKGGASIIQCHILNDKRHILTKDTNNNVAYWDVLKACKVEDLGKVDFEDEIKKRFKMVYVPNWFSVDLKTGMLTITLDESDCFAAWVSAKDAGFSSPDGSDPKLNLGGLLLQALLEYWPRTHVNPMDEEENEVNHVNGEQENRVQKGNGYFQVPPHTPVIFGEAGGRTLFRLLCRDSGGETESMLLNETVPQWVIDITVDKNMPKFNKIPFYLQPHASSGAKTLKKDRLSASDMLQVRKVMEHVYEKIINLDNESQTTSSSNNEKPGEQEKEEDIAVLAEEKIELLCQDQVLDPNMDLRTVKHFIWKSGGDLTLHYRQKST
UniProt Q8WVM0: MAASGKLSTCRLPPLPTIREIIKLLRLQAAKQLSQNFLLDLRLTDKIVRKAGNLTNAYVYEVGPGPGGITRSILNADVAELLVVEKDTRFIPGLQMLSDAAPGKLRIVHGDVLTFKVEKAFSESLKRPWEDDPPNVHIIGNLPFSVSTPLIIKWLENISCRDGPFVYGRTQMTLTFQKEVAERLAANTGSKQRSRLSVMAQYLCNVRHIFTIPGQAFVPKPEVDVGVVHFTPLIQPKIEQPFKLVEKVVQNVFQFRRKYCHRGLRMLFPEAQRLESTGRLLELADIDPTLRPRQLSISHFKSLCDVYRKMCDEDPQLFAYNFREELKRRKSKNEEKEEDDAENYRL

Compound: Nc1ncnc2c1ncn2[C@@H]1O[C@H](COP(=O)(O)OP(=O)(O)NP(=O)(O)O)[C@@H](O)[C@H]1O [adenylyl imidodiphosphate]
Assay: NP40-soluble protein abundance relative to vehicle (solubility fold change) (ratio); higher = more soluble protein in presence of AMP-PNP
Summary of the method: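 Across three independent experiments, values are fold changes against the detergent-processed vehicle for each replicate, based on vsn-normalised intensities. The samples were Jurkat crude lysate treated with eight concentrations (0.1 to 10 mM) for 10 min at room temperature and then 3 min at 37 °C. Lysate was solubilised with 0.8% NP40 and benzonase, ultracentrifuged, and the supernatant analysed by TMT-labelled LC-MS/MS.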

Target	NP40-soluble protein abundance (concentration: 1mM)	NP40-soluble protein abundance (concentration: 2mM)	NP40-soluble protein abundance (concentration: 4mM)	NP40-soluble protein abundance (concentration: 6mM)	NP40-soluble protein abundance (concentration: 8mM)	NP40-soluble protein abundance (concentration: 10mM)
GGH (UniProt Q92820)	0.985 ± 0.046	0.993 ± 0.083	1.02 ± 0.07	1.05 ± 0.062	1.08 ± 0.074	1.05 ± 0.09
KBTBD7 (UniProt Q8WVZ9)	0.977 ± 0.014	0.9633 ± 0.004	0.959 ± 0.025	0.987 ± 0.01	1.03 ± 0.018	0.988 ± 0.03
UniProt Q92784 and related entries	1.01 ± 0.022	1.01 ± 0.017	0.99 ± 0.034	1.02 ± 0.03	1.01 ± 0.012	0.983 ± 0.0094
UniProt Q8TCA0 and related entries	0.97 ± 0.016	1.01 ± 0.018	0.984 ± 0.02	0.971 ± 0.048	0.942 ± 0.015	0.978 ± 0.048
UniProt Q8TDQ7 and related entries	1 ± 0.027	0.968 ± 0.061	0.984 ± 0.037	0.984 ± 0.03	0.984 ± 0.051	0.973 ± 0.022
DTX3L (UniProt Q8TDB6)	1.03 ± 0.02	1.01 ± 0.024	1.04 ± 0.059	0.994 ± 0.03	0.996 ± 0.038	0.993 ± 0.022
UniProt Q92616	1.01 ± 0.023	0.968 ± 0.076	0.992 ± 0.046	0.964 ± 0.011	0.948 ± 0.036	0.935 ± 0.049
DDB2 (UniProt Q92466)	0.938 ± 0.04	0.881 ± 0.089	0.934 ± 0.023	0.9661 ± 0.003	0.97 ± 0.028	0.922 ± 0.06
ZC3H15 (UniProt Q8WU90)	1.04 ± 0.011	1.09 ± 0.1	1.06 ± 0.036	1.12 ± 0.052	1.11 ± 0.051	1.15 ± 0.054
UniProt Q8NCA5 and related entries	1.04 ± 0.021	1.05 ± 0.047	1.04 ± 0.017	1.1 ± 0.097	1.13 ± 0.081	1.16 ± 0.088
UniProt Q8WVQ1 and related entries	0.977 ± 0.02	0.965 ± 0.017	0.9898 ± 0.0082	0.973 ± 0.012	0.96 ± 0.024	0.977 ± 0.022
UniProt Q8TB61 and related entries	0.968 ± 0.041	0.969 ± 0.045	0.965 ± 0.045	0.953 ± 0.034	0.951 ± 0.042	0.989 ± 0.019
UniProt Q8WVT3	1.01 ± 0.031	1.001 ± 0.0084	1.01 ± 0.013	0.992 ± 0.031	0.9714 ± 0.0047	0.986 ± 0.022
UniProt Q8TEX9 and related entries	1.01 ± 0.026	0.974 ± 0.059	0.99 ± 0.017	0.9956 ± 0.0059	1.007 ± 0.0054	0.981 ± 0.025
UniProt Q8WXG6-4|Q8WXG6-5|Q8WXG6-6|Q8WXG6-7|Q8WXG6-8|Q8WXG6	1.04 ± 0.018	1.05 ± 0.034	1.05 ± 0.033	0.988 ± 0.011	0.997 ± 0.036	1 ± 0.023
UniProt Q8TEW0-8|Q5VWU8 and related entries	0.999 ± 0.029	1.04 ± 0.024	1.042 ± 0.0057	1.05 ± 0.04	1.03 ± 0.015	1.115 ± 0.011
CADM4 (UniProt Q8NFZ8)	0.99 ± 0.018	1.02 ± 0.028	1 ± 0.02	1.01 ± 0.011	0.9952 ± 0.0084	0.993 ± 0.011
PI4K2B (UniProt Q8TCG2)	0.991 ± 0.021	0.978 ± 0.012	0.971 ± 0.034	1.001 ± 0.0042	0.996 ± 0.038	0.987 ± 0.015
ENGASE (UniProt Q8NFI3)	0.989 ± 0.04	0.967 ± 0.045	1.007 ± 0.0092	0.963 ± 0.028	0.974 ± 0.026	0.936 ± 0.023
UniProt Q8NEZ4 and related entries	0.938 ± 0.056	0.898 ± 0.051	0.937 ± 0.052	0.93 ± 0.076	0.961 ± 0.045	0.886 ± 0.092
UniProt Q8TCT9 and related entries	0.959 ± 0.039	0.971 ± 0.05	0.961 ± 0.04	0.961 ± 0.048	0.937 ± 0.044	0.959 ± 0.088
UniProt Q8TDR0 and related entries	1.03 ± 0.03	1.02 ± 0.03	1.02 ± 0.014	1.03 ± 0.021	1.04 ± 0.042	1.006 ± 0.006
MAML1 (UniProt Q92585)	0.9881 ± 0.0068	1.03 ± 0.044	1.01 ± 0.055	0.9797 ± 0.0086	0.985 ± 0.058	0.976 ± 0.026
PPP1R35 (UniProt Q8TAP8)	0.984 ± 0.022	0.966 ± 0.023	0.9877 ± 0.0089	1.005 ± 0.0022	0.983 ± 0.027	0.9861 ± 0.0011
UniProt Q8NCW5	0.989 ± 0.016	1.049 ± 0.0083	1.04 ± 0.037	0.996 ± 0.026	0.974 ± 0.034	0.977 ± 0.05
WDR48 (UniProt Q8TAF3)	1.04 ± 0.0098	0.973 ± 0.12	1.05 ± 0.025	1.06 ± 0.021	1.089 ± 0.0095	1.08 ± 0.035
ZNF592 (UniProt Q92610)	0.996 ± 0.063	1.047 ± 0.008	1.03 ± 0.077	1.04 ± 0.081	1.08 ± 0.073	1.13 ± 0.11
TFB1M (UniProt Q8WVM0)	0.953 ± 0.041	1.01 ± 0.052	0.979 ± 0.042	1.03 ± 0.021	1.06 ± 0.019	1.04 ± 0.061
UniProt Q8WYP5 and related entries	1.04 ± 0.03	1.08 ± 0.041	1.1 ± 0.038	1.18 ± 0.047	1.21 ± 0.068	1.31 ± 0.11
RTF1 (UniProt Q92541)	1.03 ± 0.012	1.08 ± 0.06	1.03 ± 0.042	1.01 ± 0.022	0.984 ± 0.03	1.02 ± 0.046

Rewritten as comma-separated lines: part of the list above.
Target,NP40-soluble protein abundance (concentration: 1mM),NP40-soluble protein abundance (concentration: 2mM),NP40-soluble protein abundance (concentration: 4mM),NP40-soluble protein abundance (concentration: 6mM),NP40-soluble protein abundance (concentration: 8mM),NP40-soluble protein abundance (concentration: 10mM)
ZC3H15 (UniProt Q8WU90),1.04 ± 0.011,1.09 ± 0.1,1.06 ± 0.036,1.12 ± 0.052,1.11 ± 0.051,1.15 ± 0.054
UniProt Q8WVT3,1.01 ± 0.031,1.001 ± 0.0084,1.01 ± 0.013,0.992 ± 0.031,0.9714 ± 0.0047,0.986 ± 0.022
UniProt Q8TEX9 and related entries,1.01 ± 0.026,0.974 ± 0.059,0.99 ± 0.017,0.9956 ± 0.0059,1.007 ± 0.0054,0.981 ± 0.025
ENGASE (UniProt Q8NFI3),0.989 ± 0.04,0.967 ± 0.045,1.007 ± 0.0092,0.963 ± 0.028,0.974 ± 0.026,0.936 ± 0.023
RTF1 (UniProt Q92541),1.03 ± 0.012,1.08 ± 0.06,1.03 ± 0.042,1.01 ± 0.022,0.984 ± 0.03,1.02 ± 0.046
